In article doi:10.1101/2023.08.12.553084:
These are yes or no findings as the source states them, for the method shown. In cells and extracts the contact can be indirect. Binding calls can cover weak binding; strength is not graded here. Where a sequence is shown, tags or fusion partners need not be part of it.

Molecular target: T1, Foxp3 (murine, tag-fused, expressed in HEK293T cells) (mouse) (UniProt Q99JB6)
T1 sequence: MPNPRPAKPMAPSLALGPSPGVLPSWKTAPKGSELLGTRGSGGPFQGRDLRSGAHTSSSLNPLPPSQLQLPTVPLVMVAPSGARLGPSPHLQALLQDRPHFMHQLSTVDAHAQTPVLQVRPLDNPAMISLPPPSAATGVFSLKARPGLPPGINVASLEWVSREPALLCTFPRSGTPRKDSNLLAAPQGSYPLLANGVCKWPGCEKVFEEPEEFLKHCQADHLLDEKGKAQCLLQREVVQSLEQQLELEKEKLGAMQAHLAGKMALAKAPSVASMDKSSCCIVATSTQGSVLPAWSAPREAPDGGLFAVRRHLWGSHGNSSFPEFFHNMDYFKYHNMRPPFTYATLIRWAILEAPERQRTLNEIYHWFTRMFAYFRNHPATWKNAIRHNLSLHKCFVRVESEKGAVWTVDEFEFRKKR
Experiment: co-IP

Row | Substance | binding
1 | Ikzf1 ΔC mutant (C-terminal region deleted) (mouse) (domain or fragment) | binds
2 | Ikzf1 ΔN mutant (N-terminal region deleted) (mouse) (domain or fragment) | no binding
